# Some of the results follow.
# Columns and labels:
# Experiment in all cases: glycan array binding signal (z-score within array); higher = stronger binding
# Conditions in all cases: glycan notation: IUPAC condensed, linker removed; mutation: H213R,G256S
# [1] = biological target: Gal(b1-4)GlcNAc(b1-6)GalNAc
# Summary of the method: (§1)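 Negative Z-scores can be read as non-binding. The Z-score is calculated within each array and then averaged across arrays of one protein sequence at different concentrations or buffers and across linkers. Arrays, 3228 in all, were curated from the Consortium for Functional Glycomics database and kept only where the protein sequence was available.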
# [2] = biological target: Gal(b1-4)GlcNAc(b1-6)[Gal(b1-3)]GalNAc
# Summary of the method: as §1
# Gal3S(b1-3)GalNAc = biological target: Gal3S(b1-3)GalNAc
# Summary of the method: as §1
# Gal3S(b1-3)GlcNAc = biological target: Gal3S(b1-3)GlcNAc
# Summary of the method: as §1
# [3] = biological target: Gal3S(b1-3)[Fuc(a1-4)]GlcNAc
# Summary of the method: as §1
# Gal3S(b1-4)Glc = biological target: Gal3S(b1-4)Glc
# Summary of the method: as §1
# Gal3S(b1-4)Glc6S = biological target: Gal3S(b1-4)Glc6S
# Summary of the method: as §1
# Gal3S(b1-4)GlcNAc = biological target: Gal3S(b1-4)GlcNAc
# Summary of the method: as §1
# Gal3S(b1-4)GlcNAc6S = biological target: Gal3S(b1-4)GlcNAc6S
# Summary of the method: as §1
# [4] = biological target: Gal3S(b1-4)[Fuc(a1-3)]Glc
# Summary of the method: as §1
# Gal3S6S(b1-4)GlcNAc = biological target: Gal3S6S(b1-4)GlcNAc
# Summary of the method: as §1
# Gal3S6S(b1-4)GlcNAc6S = biological target: Gal3S6S(b1-4)GlcNAc6S
# Summary of the method: as §1
# Gal4S(b1-4)GlcNAc = biological target: Gal4S(b1-4)GlcNAc
# Summary of the method: as §1
# Gal4S6S(b1-4)GlcNAc = biological target: Gal4S6S(b1-4)GlcNAc
# Summary of the method: as §1
# Gal6S(b1-4)Glc = biological target: Gal6S(b1-4)Glc
# Summary of the method: as §1
# Gal6S(b1-4)Glc6S = biological target: Gal6S(b1-4)Glc6S
# Summary of the method: as §1
# Gal6S(b1-4)GlcNAc = biological target: Gal6S(b1-4)GlcNAc
# Summary of the method: as §1
# GalNAc(a1-3)Gal = biological target: GalNAc(a1-3)Gal
# Summary of the method: as §1
# GalNAc(a1-3)GalNAc = biological target: GalNAc(a1-3)GalNAc
# Summary of the method: as §1
# [5] = biological target: GalNAc(b1-3)Gal(a1-4)Gal(b1-4)GlcNAc
# Summary of the method: as §1
# GalNAc(b1-3)GalNAc = biological target: GalNAc(b1-3)GalNAc
# Summary of the method: as §1
# GalNAc(b1-4)GlcNAc = biological target: GalNAc(b1-4)GlcNAc
# Summary of the method: as §1
# Glc(a1-4)Glc = biological target: Glc(a1-4)Glc
# Summary of the method: as §1
# Glc(a1-6)Glc(a1-6)Glc = biological target: Glc(a1-6)Glc(a1-6)Glc
# Summary of the method: as §1
# Glc(b1-4)Glc = biological target: Glc(b1-4)Glc
# Summary of the method: as §1
# Glc(b1-6)Glc = biological target: Glc(b1-6)Glc
# Summary of the method: as §1
# GlcA(b1-3)Gal = biological target: GlcA(b1-3)Gal
# Summary of the method: as §1
# GlcA(b1-6)Gal = biological target: GlcA(b1-6)Gal
# Summary of the method: as §1
# [6] = biological target: GlcNAc(a1-3)Gal(b1-4)GlcNAc
# Summary of the method: as §1
# [7] = biological target: GlcNAc(a1-6)Gal(b1-4)GlcNAc
# Summary of the method: as §1
# [8] = biological target: GlcNAc(b1-2)Gal(b1-3)GalNAc
# Summary of the method: as §1
# [9] = biological target: GlcNAc(b1-2)Man(a1-3)[GlcNAc(b1-2)Man(a1-6)]Man(b1-4)GlcNAc(b1-4)GlcNAc
# Summary of the method: as §1
# GlcNAc(b1-3)Gal = biological target: GlcNAc(b1-3)Gal
# Summary of the method: as §1
# [10] = biological target: GlcNAc(b1-3)Gal(b1-3)GalNAc
# Summary of the method: as §1
# GlcNAc(b1-3)Gal(b1-4)Glc = biological target: GlcNAc(b1-3)Gal(b1-4)Glc
# Summary of the method: as §1
# [11] = biological target: GlcNAc(b1-3)Gal(b1-4)GlcNAc
# Summary of the method: as §1
# [12] = biological target: GlcNAc(b1-3)Gal(b1-4)GlcNAc(b1-3)Gal(b1-4)GlcNAc
# Summary of the method: as §1
# GlcNAc(b1-3)GalNAc = biological target: GlcNAc(b1-3)GalNAc
# Summary of the method: as §1
# [13] = biological target: GlcNAc(b1-3)[GlcNAc(b1-4)][GlcNAc(b1-6)]GlcNAc
# Summary of the method: as §1
# [14] = biological target: GlcNAc(b1-3)[GlcNAc(b1-6)]Gal(b1-4)GlcNAc
# Summary of the method: as §1
# [15] = biological target: GlcNAc(b1-3)[GlcNAc(b1-6)]GalNAc
# Summary of the method: as §1
# [16] = biological target: GlcNAc(b1-4)Gal(b1-4)GlcNAc
# Summary of the method: as §1
# [17] = biological target: GlcNAc(b1-4)GlcNAc(b1-4)GlcNAc
# Summary of the method: as §1
# [18] = biological target: GlcNAc(b1-4)GlcNAc(b1-4)GlcNAc(b1-4)GlcNAc(b1-4)GlcNAc
# Summary of the method: as §1
# [19] = biological target: GlcNAc(b1-4)GlcNAc(b1-4)GlcNAc(b1-4)GlcNAc(b1-4)GlcNAc(b1-4)GlcNAc
# Summary of the method: as §1
binder,measurement,setting,value
CD23 (Homo sapiens) (protein) MELQVSSGFVCNTCPEKWINFQRKCYYFGKGTKQWVHARYACDDMEGQLVSIHSPEEQDFLTKRASHTGSWIGLRNLDLKGEFIWVDGSHVDYSNWAPGEPTSRSQSEDCVMMRGSGRWNDAFCDRKLGAWVCDRLATCTPPASEGSAESMGPDSRPDPDGRLPTPSAPLHS,glycan array binding signal (z-score),[1],0.044
same,glycan array binding signal (z-score),[2],-0.211
same,glycan array binding signal (z-score),Gal3S(b1-3)GalNAc,-0.308
same,glycan array binding signal (z-score),Gal3S(b1-3)GlcNAc,-0.298
same,glycan array binding signal (z-score),[3],0.525
same,glycan array binding signal (z-score),Gal3S(b1-4)Glc,0.2
same,glycan array binding signal (z-score),Gal3S(b1-4)Glc6S,0.296
same,glycan array binding signal (z-score),Gal3S(b1-4)GlcNAc,0.255
same,glycan array binding signal (z-score),Gal3S(b1-4)GlcNAc6S,0.296
same,glycan array binding signal (z-score),[4],-0.106
same,glycan array binding signal (z-score),Gal3S6S(b1-4)GlcNAc,-0.069
same,glycan array binding signal (z-score),Gal3S6S(b1-4)GlcNAc6S,1.06
same,glycan array binding signal (z-score),Gal4S(b1-4)GlcNAc,0.736
same,glycan array binding signal (z-score),Gal4S6S(b1-4)GlcNAc,-0.54
same,glycan array binding signal (z-score),Gal6S(b1-4)Glc,0.104
same,glycan array binding signal (z-score),Gal6S(b1-4)Glc6S,0.798
same,glycan array binding signal (z-score),Gal6S(b1-4)GlcNAc,-0.574
same,glycan array binding signal (z-score),GalNAc(a1-3)Gal,0.13
same,glycan array binding signal (z-score),GalNAc(a1-3)GalNAc,0.299
same,glycan array binding signal (z-score),[5],-0.27
same,glycan array binding signal (z-score),GalNAc(b1-3)GalNAc,-0.197
same,glycan array binding signal (z-score),GalNAc(b1-4)GlcNAc,-0.341
same,glycan array binding signal (z-score),Glc(a1-4)Glc,-0.304
same,glycan array binding signal (z-score),Glc(a1-6)Glc(a1-6)Glc,0.031
same,glycan array binding signal (z-score),Glc(b1-4)Glc,-0.373
same,glycan array binding signal (z-score),Glc(b1-6)Glc,-0.561
same,glycan array binding signal (z-score),GlcA(b1-3)Gal,-0.28
same,glycan array binding signal (z-score),GlcA(b1-6)Gal,-0.24
same,glycan array binding signal (z-score),[6],0.02
same,glycan array binding signal (z-score),[7],-0.365
same,glycan array binding signal (z-score),[8],-0.036
same,glycan array binding signal (z-score),[9],-0.07
same,glycan array binding signal (z-score),GlcNAc(b1-3)Gal,-0.107
same,glycan array binding signal (z-score),[10],0.679
same,glycan array binding signal (z-score),GlcNAc(b1-3)Gal(b1-4)Glc,-0.551
same,glycan array binding signal (z-score),[11],-0.235
same,glycan array binding signal (z-score),[12],-0.36
same,glycan array binding signal (z-score),GlcNAc(b1-3)GalNAc,0.052
same,glycan array binding signal (z-score),[13],0.277
same,glycan array binding signal (z-score),[14],-0.334
same,glycan array binding signal (z-score),[15],-0.403
same,glycan array binding signal (z-score),[16],-0.015
same,glycan array binding signal (z-score),[17],-0.43
same,glycan array binding signal (z-score),[18],0.095
same,glycan array binding signal (z-score),[19],-0.318

# Pulled one by one from the entries so far:
binder,measurement,setting,value
CD23 (Homo sapiens) (protein) MELQVSSGFVCNTCPEKWINFQRKCYYFGKGTKQWVHARYACDDMEGQLVSIHSPEEQDFLTKRASHTGSWIGLRNLDLKGEFIWVDGSHVDYSNWAPGEPTSRSQSEDCVMMRGSGRWNDAFCDRKLGAWVCDRLATCTPPASEGSAESMGPDSRPDPDGRLPTPSAPLHS,glycan array binding signal (z-score),Gal3S(b1-3)GlcNAc,-0.298
same,glycan array binding signal (z-score),[17],-0.43

# Source: the supplement of paper PMC8728848
